According to patent US11452727B2, “Combination therapy for treating cancer” (Epizyme, Inc., priority 2017, dated 2022):
For at least one compound, name, drawing or mass did not settle the structure.

System: A427
Assay: In vitro combination study with tazemetostat, cell proliferation (Cell Titer Glo)
Details: A427 cells; dose matrix, Loewe excess matrix, isobologram (FIG. 2-5)

Compound	synergy with an EZH2 inhibitor (tazemetostat)
CC(=O)c1c(C)c2cnc(Nc3ccc(N4CCNCC4)cn3)nc2n(C2CCCC2)c1=O [Palbociclib, palbociclib]	synergy
CC(=O)Nc1cccc(-n2c(=O)n(C3CC3)c(=O)c3c(Nc4ccc(I)cc4F)n(C)c(=O)c(C)c32)c1 [Trametinib, trametinib]	synergy
